No constants are given. Whether binding was seen depends on the method and setting. In cells and extracts the contact can be indirect. These calls come from enrichment with a bait or labelling near it, and not all partners need be listed.
Biological target: GFP-BIN1 isoform 8 (human)
Experiment: affinity purification with mass spectrometry; GFP-Trap from HeLa cells transfected with GFP or GFP-BIN1; hits selected by Mascot score

- binding: binds
B1: dynamin 1 (endogenous, HeLa) (protein, UniProt Q05193 1-864)
chain: MGNRGMEDLIPLVNRLQDAFSAIGQNADLDLPQIAVVGGQSAGKSSVLENFVGRDFLPRGSGIVTRRPLVLQLVNATTEYAEFLHCKGKKFTDFEEVRLEIEAETDRVTGTNKGISPVPINLRVYSPHVLNLTLVDLPGMTKVPVGDQPPDIEFQIRDMLMQFVTKENCLILAVSPANSDLANSDALKVAKEVDPQGQRTIGVITKLDLMDEGTDARDVLENKLLPLRRGYIGVVNRSQKDIDGKKDITAALAAERKFFLSHPSYRHLADRMGTPYLQKVLNQQLTNHIRDTLPGLRNKLQSQLLSIEKEVEEYKNFRPDDPARKTKALLQMVQQFAVDFEKRIEGSGDQIDTYELSGGARINRIFHERFPFELVKMEFDEKELRREISYAIKNIHGIRTGLFTPDMAFETIVKKQVKKIREPCLKCVDMVISELISTVRQCTKKLQQYPRLREEMERIVTTHIREREGRTKEQVMLLIDIELAYMNTNHEDFIGFANAQQRSNQMNKKKTSGNQDEILVIRKGWLTINNIGIMKGGSKEYWFVLTAENLSWYKDDEEKEKKYMLSVDNLKLRDVEKGFMSSKHIFALFNTEQRNVYKDYRQLELACETQEEVDSWKASFLRAGVYPERVGDKEKASETEENGSDSFMHSMDPQLERQVETIRNLVDSYMAIVNKTVRDLMPKTIMHLMINNTKEFIFSELLANLYSCGDQNTLMEESAEQAQRRDEMLRMYHALKEALSIIGDINTTTVSTPMPPPVDDSWLQVQSVPAGRRSPTSSPTPQRRAPAVPPARPGSRGPAPGPPPAGSALGGAPPVPSRPGASPDPFGPPPQVPSRPNRAPPGVPSRSGQASPSRPESPRPPFDL

— article PMC11082164
